This passage reports activity, negative = inhibition results from PubChem BioAssay AID2739 (Broad Institute, 2010).

Chains of the proteins cited; added tags and fusions are not shown. Lines headed by an entry give the natural chain unless they say otherwise; changes in a name come on top.
UniProt Q9XUB2: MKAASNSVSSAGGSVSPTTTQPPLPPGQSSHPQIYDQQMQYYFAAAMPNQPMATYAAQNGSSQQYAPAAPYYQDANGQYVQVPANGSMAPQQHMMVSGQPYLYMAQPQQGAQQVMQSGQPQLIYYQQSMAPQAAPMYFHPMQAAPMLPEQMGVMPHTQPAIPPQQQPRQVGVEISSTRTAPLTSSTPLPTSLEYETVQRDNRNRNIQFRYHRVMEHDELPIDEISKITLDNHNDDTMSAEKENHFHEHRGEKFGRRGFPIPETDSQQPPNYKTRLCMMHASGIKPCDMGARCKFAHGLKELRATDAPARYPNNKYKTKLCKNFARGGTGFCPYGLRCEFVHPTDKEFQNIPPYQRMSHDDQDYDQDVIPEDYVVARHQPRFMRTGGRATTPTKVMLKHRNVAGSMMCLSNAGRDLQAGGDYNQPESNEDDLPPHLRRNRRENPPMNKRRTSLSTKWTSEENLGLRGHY

SMILES strings stand for the structures. The list shows a part of the results. Where no call is shown, the source marks the result inconclusive.

The test addresses Zinc finger protein mex-5 (Caenorhabditis elegans) (UniProt Q9XUB2). Description: inhibitors of MEX-5 RNA binding, dose response, biochemical, fluorescence polarization, MBP-MEX-5, FITC-TCR2 RNA (AID 2739). Particulars: MBP-MEX-5 / FITC-TCR2 RNA fluorescence polarization, 1 h; at 135 µM (top of the series).

`Oc1ccc(CCNc2c3ccccc3nc3ccccc23)cc1O` showed an activity, negative = inhibition of 90.1%.
